Measurements reported in the supplement of paper PMC12067093, “Discovery and optimisation of a covalent ligand for TRIM25 and its application to targeted protein ubiquitination” (Chemical Science, 2025).
The list shows a part of the results.
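Note: competitive profiling in live THP-1 cells: cysteine peptides tagged with an iodoacetamide desthiobiotin (IA-DTB) probe, intensity after compound treatment relative to DMSO-treated cells.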

By UniProt entry, the sequences of proteins in these tests, tags left out. Where a name states a change or a piece, a line headed by the entry shows the natural chain unless it says otherwise.
UniProt Q15061: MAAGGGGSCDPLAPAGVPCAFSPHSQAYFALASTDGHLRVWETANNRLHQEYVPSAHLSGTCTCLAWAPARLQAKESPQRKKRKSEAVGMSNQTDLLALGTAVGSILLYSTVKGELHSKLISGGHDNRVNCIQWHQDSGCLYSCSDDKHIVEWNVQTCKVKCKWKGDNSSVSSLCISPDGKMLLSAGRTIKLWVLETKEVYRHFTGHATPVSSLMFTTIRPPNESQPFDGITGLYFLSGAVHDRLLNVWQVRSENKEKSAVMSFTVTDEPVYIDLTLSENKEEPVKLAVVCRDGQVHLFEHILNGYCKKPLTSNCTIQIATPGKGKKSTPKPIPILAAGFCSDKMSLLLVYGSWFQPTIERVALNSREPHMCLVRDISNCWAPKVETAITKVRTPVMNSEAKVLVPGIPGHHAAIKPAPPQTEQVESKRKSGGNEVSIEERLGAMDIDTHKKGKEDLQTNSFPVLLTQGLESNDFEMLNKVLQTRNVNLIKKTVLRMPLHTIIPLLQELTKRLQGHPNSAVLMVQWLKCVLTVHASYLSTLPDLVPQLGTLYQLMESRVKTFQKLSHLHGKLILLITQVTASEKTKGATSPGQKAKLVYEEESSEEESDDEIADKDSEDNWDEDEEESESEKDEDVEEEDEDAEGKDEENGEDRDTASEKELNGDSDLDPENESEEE
UniProt O75717: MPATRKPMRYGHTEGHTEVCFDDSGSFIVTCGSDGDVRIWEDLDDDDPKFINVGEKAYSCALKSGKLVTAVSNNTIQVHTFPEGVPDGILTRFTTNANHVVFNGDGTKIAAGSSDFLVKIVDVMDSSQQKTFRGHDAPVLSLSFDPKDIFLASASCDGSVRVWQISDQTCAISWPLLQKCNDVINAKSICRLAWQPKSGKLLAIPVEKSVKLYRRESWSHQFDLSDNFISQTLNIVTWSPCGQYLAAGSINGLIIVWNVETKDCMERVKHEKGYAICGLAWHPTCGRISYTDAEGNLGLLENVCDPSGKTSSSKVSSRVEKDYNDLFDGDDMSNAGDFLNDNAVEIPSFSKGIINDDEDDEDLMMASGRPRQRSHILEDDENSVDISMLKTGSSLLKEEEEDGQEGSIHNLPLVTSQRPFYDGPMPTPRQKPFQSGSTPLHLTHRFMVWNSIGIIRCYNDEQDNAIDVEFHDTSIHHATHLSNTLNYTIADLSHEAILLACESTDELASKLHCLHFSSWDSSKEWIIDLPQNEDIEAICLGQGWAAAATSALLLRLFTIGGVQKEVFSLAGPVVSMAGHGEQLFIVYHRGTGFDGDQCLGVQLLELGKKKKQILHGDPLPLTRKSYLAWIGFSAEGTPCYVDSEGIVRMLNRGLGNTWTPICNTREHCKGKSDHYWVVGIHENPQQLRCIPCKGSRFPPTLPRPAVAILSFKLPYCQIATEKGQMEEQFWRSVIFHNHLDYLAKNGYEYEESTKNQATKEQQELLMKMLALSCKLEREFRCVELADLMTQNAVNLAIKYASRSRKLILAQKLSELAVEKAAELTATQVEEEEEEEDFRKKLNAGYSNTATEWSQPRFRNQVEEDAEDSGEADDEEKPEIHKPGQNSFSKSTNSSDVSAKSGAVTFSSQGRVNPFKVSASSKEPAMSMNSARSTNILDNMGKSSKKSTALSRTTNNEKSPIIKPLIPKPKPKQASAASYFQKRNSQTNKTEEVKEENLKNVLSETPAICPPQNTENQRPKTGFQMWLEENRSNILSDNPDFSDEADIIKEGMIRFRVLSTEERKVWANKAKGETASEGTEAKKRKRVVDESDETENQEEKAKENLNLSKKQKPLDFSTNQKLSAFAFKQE
UniProt Q9Y4E6, whole entry, looked up: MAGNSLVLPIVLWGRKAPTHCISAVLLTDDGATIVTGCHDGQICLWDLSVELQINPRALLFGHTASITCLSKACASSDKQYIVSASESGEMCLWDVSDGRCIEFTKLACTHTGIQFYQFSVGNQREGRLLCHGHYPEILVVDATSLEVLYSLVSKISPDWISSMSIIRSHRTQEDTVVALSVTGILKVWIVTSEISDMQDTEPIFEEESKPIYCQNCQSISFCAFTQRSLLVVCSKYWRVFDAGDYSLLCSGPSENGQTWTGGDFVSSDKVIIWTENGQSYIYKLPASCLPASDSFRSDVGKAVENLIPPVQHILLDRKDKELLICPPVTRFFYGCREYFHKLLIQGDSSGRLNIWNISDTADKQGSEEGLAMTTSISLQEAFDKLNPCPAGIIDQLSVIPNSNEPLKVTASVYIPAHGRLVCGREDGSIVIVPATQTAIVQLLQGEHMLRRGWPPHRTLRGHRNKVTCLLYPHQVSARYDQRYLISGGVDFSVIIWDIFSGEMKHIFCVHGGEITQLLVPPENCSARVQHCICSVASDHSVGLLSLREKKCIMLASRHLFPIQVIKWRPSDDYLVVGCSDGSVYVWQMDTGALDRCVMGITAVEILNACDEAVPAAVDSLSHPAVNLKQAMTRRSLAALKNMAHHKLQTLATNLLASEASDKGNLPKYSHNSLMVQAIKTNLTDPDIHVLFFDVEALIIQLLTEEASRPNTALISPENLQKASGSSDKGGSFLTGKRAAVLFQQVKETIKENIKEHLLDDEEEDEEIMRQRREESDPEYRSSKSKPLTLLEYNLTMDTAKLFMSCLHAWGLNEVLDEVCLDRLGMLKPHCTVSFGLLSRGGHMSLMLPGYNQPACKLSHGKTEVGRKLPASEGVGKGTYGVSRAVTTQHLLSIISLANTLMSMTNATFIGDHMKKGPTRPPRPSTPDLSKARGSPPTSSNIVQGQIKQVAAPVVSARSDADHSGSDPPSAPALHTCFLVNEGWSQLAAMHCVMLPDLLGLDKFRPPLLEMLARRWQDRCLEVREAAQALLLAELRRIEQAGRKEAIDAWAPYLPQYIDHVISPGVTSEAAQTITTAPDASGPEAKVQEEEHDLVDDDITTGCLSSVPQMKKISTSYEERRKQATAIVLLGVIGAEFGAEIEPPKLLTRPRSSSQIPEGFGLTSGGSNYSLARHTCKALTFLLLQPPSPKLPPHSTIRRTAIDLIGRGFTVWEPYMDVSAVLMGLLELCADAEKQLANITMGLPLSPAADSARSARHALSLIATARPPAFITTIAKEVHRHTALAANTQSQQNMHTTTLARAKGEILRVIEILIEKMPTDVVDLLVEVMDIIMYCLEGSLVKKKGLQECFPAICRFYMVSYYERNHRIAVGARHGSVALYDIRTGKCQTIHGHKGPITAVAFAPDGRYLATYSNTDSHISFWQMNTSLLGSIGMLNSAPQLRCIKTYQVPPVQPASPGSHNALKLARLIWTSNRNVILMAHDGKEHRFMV
UniProt Q6UXN9, whole entry, looked up: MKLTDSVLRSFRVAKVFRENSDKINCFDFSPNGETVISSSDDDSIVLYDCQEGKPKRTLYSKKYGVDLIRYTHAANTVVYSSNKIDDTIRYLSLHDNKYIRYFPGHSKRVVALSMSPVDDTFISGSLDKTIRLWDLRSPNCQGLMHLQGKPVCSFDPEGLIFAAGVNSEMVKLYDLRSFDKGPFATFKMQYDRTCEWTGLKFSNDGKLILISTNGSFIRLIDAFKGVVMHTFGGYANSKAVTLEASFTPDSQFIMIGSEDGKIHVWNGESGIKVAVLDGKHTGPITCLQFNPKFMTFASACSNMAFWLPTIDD
UniProt Q9BZH6: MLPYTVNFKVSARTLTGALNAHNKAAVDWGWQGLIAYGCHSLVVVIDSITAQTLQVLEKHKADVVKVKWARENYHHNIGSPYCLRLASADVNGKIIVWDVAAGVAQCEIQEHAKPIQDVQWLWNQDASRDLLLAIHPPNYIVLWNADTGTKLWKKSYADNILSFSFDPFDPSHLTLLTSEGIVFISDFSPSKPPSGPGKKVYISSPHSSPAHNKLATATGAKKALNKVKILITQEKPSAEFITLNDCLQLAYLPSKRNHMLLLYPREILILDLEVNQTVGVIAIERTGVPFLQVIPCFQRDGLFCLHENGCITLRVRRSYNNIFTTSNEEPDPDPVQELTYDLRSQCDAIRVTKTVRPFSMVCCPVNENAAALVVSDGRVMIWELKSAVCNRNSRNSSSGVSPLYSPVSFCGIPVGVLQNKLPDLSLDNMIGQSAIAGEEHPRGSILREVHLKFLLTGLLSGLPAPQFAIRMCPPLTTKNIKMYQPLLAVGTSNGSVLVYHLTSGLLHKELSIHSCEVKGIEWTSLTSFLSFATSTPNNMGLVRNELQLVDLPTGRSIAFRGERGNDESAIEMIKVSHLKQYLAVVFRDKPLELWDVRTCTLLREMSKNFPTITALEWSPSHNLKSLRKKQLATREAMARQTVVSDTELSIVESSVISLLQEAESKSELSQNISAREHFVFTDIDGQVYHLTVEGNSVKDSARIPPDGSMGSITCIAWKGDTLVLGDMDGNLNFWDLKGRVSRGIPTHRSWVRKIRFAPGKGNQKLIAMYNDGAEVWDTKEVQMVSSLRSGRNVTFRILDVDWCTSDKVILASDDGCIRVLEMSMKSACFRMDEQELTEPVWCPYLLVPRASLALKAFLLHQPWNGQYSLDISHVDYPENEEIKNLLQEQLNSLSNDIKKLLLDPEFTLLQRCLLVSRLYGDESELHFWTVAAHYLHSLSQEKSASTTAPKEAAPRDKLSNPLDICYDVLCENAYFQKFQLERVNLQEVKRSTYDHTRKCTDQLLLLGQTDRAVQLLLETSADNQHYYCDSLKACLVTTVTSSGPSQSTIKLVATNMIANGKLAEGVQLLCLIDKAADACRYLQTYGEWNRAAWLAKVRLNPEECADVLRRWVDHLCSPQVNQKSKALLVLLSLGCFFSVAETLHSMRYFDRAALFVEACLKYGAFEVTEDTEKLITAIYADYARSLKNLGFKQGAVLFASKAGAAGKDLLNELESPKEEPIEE
UniProt Q8IWB7: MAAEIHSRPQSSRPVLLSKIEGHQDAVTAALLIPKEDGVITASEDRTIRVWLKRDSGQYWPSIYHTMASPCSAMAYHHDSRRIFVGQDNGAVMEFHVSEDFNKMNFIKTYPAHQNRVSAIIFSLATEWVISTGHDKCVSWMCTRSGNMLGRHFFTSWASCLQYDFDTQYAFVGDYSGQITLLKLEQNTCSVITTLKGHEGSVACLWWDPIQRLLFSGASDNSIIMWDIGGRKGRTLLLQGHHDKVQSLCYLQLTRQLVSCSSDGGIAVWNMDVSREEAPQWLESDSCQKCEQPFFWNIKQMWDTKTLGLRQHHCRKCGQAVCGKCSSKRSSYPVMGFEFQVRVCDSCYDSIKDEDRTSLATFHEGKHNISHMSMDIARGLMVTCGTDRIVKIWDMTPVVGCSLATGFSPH
UniProt Q9HAD4: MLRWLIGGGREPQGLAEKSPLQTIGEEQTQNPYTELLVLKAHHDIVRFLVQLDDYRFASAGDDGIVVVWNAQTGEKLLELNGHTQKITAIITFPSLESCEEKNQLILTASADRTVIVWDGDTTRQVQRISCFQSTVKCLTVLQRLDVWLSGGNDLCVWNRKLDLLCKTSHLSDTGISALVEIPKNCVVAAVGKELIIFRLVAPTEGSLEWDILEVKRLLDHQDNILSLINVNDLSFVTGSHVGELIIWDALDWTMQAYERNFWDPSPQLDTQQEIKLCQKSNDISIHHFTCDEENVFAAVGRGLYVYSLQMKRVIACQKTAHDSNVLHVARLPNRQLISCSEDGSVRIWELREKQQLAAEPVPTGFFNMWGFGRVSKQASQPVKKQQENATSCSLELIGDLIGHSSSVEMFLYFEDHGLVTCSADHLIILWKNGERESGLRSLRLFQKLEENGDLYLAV
UniProt O00308: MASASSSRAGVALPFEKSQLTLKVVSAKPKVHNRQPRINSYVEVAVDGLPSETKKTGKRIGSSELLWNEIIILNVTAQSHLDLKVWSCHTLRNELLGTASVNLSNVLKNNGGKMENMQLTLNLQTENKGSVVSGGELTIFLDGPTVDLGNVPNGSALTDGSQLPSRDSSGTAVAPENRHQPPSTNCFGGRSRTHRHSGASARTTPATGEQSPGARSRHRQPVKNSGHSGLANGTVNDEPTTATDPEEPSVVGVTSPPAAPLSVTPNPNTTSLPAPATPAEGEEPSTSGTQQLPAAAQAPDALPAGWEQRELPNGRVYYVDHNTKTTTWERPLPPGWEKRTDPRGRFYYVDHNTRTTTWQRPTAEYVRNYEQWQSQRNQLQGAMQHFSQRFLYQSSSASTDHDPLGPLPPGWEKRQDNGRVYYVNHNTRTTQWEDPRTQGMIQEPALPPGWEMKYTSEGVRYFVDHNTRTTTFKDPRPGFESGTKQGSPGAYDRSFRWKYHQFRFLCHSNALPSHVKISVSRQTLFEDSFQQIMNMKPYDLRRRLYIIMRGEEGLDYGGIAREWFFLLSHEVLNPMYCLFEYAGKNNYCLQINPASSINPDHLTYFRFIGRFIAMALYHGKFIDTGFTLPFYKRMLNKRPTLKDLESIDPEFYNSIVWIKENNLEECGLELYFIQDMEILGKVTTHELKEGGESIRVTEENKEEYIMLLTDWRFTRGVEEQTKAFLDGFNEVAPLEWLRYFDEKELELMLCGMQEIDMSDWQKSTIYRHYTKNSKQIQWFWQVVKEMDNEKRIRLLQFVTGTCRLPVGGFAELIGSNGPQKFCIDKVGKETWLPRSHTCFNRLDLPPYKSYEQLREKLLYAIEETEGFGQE

Each target was assayed with Cc1cc(ccc1-c1ccccc1)C(=O)N1CCCN(CC1)C(=O)CCl [compound 10] (assay: probe-labelled cysteine peptide fold change vs DMSO (competition) (log2 fold change); higher = less target engagement (more negative = stronger competition)). Conditions: 10 µM; THP-1; incubation time: 4 h.
For “WDR43_Q15061_315_KPLTSNCTIQIATPGK (UniProt Q15061)”, the “probe-labelled cysteine peptide fold change” value was -0.00294.
“WDFY3_Q8IZQ1_908_CSAALADEDHSLHPPLQR (UniProt Q8IZQ1)” was tested, and the “probe-labelled cysteine peptide fold change” value was 0.237.
“WDR3_Q9UNX4_307_ILACHGTDSVLELFCILSK (UniProt Q9UNX4)” was tested, and the “probe-labelled cysteine peptide fold change” value was 0.0303.
With “WDR61_Q9GZS3_303_IVSVGDDQEIHIYDCPI (UniProt Q9GZS3)” the “probe-labelled cysteine peptide fold change” value was -0.278.
For “WDR59_Q6PJI9_163_NANCLATSHDGDVR (UniProt Q6PJI9)”, the “probe-labelled cysteine peptide fold change” value was -0.0344.
“WDR3_Q9UNX4_183_WWDLDTQHCFK (UniProt Q9UNX4)” was tested, and the “probe-labelled cysteine peptide fold change” value was 0.0656.
For “WDR47_O94967_367_SLMLENTECHSIYEESPER (UniProt O94967)”, the “probe-labelled cysteine peptide fold change” value was -0.285.
In the case of “WDHD1_O75717_773_MLALSCK (UniProt O75717)”, the “probe-labelled cysteine peptide fold change” value is reported as 0.122.
“WDR76_Q9H967_562_QEDCVIVGSMAHPR (UniProt Q9H967)” was tested, and the “probe-labelled cysteine peptide fold change” value was -0.0209.
In the case of “WRN_Q14191_1115_LYSYKPCDK (UniProt Q14191)”, the “probe-labelled cysteine peptide fold change” value is reported as -0.116.
“WDR91_A4D1P6_246_LGDSELAMVCSQR (UniProt A4D1P6)” was tested, and the “probe-labelled cysteine peptide fold change” value was -0.309.
In the case of “WDR19_Q8NEZ3_813_EHDEACLAGVAQMSIR (UniProt Q8NEZ3)”, the “probe-labelled cysteine peptide fold change” value is reported as 0.164.
For “WDR92_Q96MX6_24_GFNYTVFDCK (UniProt Q96MX6)”, the “probe-labelled cysteine peptide fold change” value was 0.113.
In the case of “XAF1_Q6GPH4_62_LEHQQVGCTMCQQSMQK (UniProt Q6GPH4)”, the “probe-labelled cysteine peptide fold change” value is reported as -0.108.
With “WDR7_Q9Y4E6_109_LACTHTGIQFYQFSVGNQR (UniProt Q9Y4E6)” the “probe-labelled cysteine peptide fold change” value was 0.162.
In the case of “WDR75_Q8IWA0_444+451_INMPHEDCITALCFCNAEK (UniProt Q8IWA0)”, the “probe-labelled cysteine peptide fold change” value is reported as 0.028.
In the case of “WDR59_Q6PJI9_654_VIIQDIACLLPVHK (UniProt Q6PJI9)”, the “probe-labelled cysteine peptide fold change” value is reported as 0.145.
For XPC_Q01831_514_MCSDGEK (UniProt Q01831), the “probe-labelled cysteine peptide fold change” value was -0.13.
For “WDFY4_Q6ZS81_1763_HHQEEVLQAGLCTEGALLLLEMLK (UniProt Q6ZS81)”, the “probe-labelled cysteine peptide fold change” value was 0.302.
In the case of “WRAP53_Q9BUR4_512_HVHLECR (UniProt Q9BUR4)”, the “probe-labelled cysteine peptide fold change” value is reported as 0.0756.
For “WDFY4_Q6ZS81_835_MDEGDAAIMHPGVVCIMVR (UniProt Q6ZS81)”, the “probe-labelled cysteine peptide fold change” value was -0.0563.
In the case of “WDR7_Q9Y4E6-2_959_QGWSQLAAMHCVMLPDLLGLDK (UniProt Q9Y4E6)”, the “probe-labelled cysteine peptide fold change” value is reported as -0.158.
In the case of “WDR43_Q15061_140_VNCIQWHQDSGCLYSCSDDK (UniProt Q15061)”, the “probe-labelled cysteine peptide fold change” value is reported as 0.0617.
For “WDFY4_Q6ZS81_545_VSTPGVQDPERELTCVMLR (UniProt Q6ZS81)”, the “probe-labelled cysteine peptide fold change” value was -0.087.
In the case of “WDR59_Q6PJI9_677_SLGELYILNVNDIQETCQK (UniProt Q6PJI9)”, the “probe-labelled cysteine peptide fold change” value is reported as 0.135.
“WDR53_Q7Z5U6_99_DSLDHFHVNEEEINCLSLNQTENLLASADDSGAIK (UniProt Q7Z5U6)” was tested, and the “probe-labelled cysteine peptide fold change” value was -0.617.
“WDR82_Q6UXN9_153_PVCSFDPEGLIFAAGVNSEMVK (UniProt Q6UXN9)” was tested, and the “probe-labelled cysteine peptide fold change” value was 0.151.
“WDR75_Q8IWA0_546_HLCFGR (UniProt Q8IWA0)” was tested, and the “probe-labelled cysteine peptide fold change” value was 0.0497.
For “WDR92_Q96MX6_213_NGVCSLEFDRK (UniProt Q96MX6)”, the “probe-labelled cysteine peptide fold change” value was 0.146.
In the case of “WDR11_Q9BZH6_1000_KCTDQLLLLGQTDR (UniProt Q9BZH6)”, the “probe-labelled cysteine peptide fold change” value is reported as -0.0686.
For “WDHD1_O75717_277+285_GYAICGLAWHPTCGR (UniProt O75717)”, the “probe-labelled cysteine peptide fold change” value was 0.0322.
For “WDR5_P61964_205_IWDTASGQCLK (UniProt P61964)”, the “probe-labelled cysteine peptide fold change” value was 0.16.
In the case of “WDR3_Q9UNX4_296+307_ILACHGTDSVLELFCILSK (UniProt Q9UNX4)”, the “probe-labelled cysteine peptide fold change” value is reported as -0.125.
For “WDR11_Q9BZH6_473_MCPPLTTK (UniProt Q9BZH6)”, the “probe-labelled cysteine peptide fold change” value was 0.0578.
With “WDFY1_Q8IWB7_344_VCDSCYDSIKDEDR (UniProt Q8IWB7)” the “probe-labelled cysteine peptide fold change” value was -0.175.
For “WDR41_Q9HAD4_340_QLISCSEDGSVR (UniProt Q9HAD4)”, the “probe-labelled cysteine peptide fold change” value was 0.062.
In the case of “WWP2_O00308_506_FLCHSNALPSHVK (UniProt O00308)”, the “probe-labelled cysteine peptide fold change” value is reported as -0.0825.
For “WNK1_Q9H4A3_1135_VVECQLETHNR (UniProt Q9H4A3)”, the “probe-labelled cysteine peptide fold change” value was 0.0732.
“WDR1_O75083_438_KCFSIDNPGYEPEVVAVHPGGDTVAIGGVDGNVR (UniProt O75083)” was tested, and the “probe-labelled cysteine peptide fold change” value was -0.369.
For “WDR76_Q9H967_66_VYLAPFSLSNYQLDQLMCPK (UniProt Q9H967)”, the “probe-labelled cysteine peptide fold change” value was 0.0473.

Same assay, conditions: 50 µM; THP-1; incubation time: 4 h
“WDR43_Q15061_315_KPLTSNCTIQIATPGK (UniProt Q15061)” was tested, and the “probe-labelled cysteine peptide fold change” value was -0.0246.
“WDFY3_Q8IZQ1_908_CSAALADEDHSLHPPLQR (UniProt Q8IZQ1)” was tested, and the “probe-labelled cysteine peptide fold change” value was 0.252.
For “WDR3_Q9UNX4_307_ILACHGTDSVLELFCILSK (UniProt Q9UNX4)”, the “probe-labelled cysteine peptide fold change” value was 0.246.
With “WDR61_Q9GZS3_303_IVSVGDDQEIHIYDCPI (UniProt Q9GZS3)” the “probe-labelled cysteine peptide fold change” value was 0.119.
“WDR59_Q6PJI9_163_NANCLATSHDGDVR (UniProt Q6PJI9)” was tested, and the “probe-labelled cysteine peptide fold change” value was 0.132.
In the case of “WDR3_Q9UNX4_183_WWDLDTQHCFK (UniProt Q9UNX4)”, the “probe-labelled cysteine peptide fold change” value is reported as 0.271.
“WDR47_O94967_367_SLMLENTECHSIYEESPER (UniProt O94967)” was tested, and the “probe-labelled cysteine peptide fold change” value was -0.153.
In the case of “WDHD1_O75717_773_MLALSCK (UniProt O75717)”, the “probe-labelled cysteine peptide fold change” value is reported as -0.0756.
With “WDR76_Q9H967_562_QEDCVIVGSMAHPR (UniProt Q9H967)” the “probe-labelled cysteine peptide fold change” value was 0.371.
For “WRN_Q14191_1115_LYSYKPCDK (UniProt Q14191)”, the “probe-labelled cysteine peptide fold change” value was -0.708.
In the case of “WDR91_A4D1P6_246_LGDSELAMVCSQR (UniProt A4D1P6)”, the “probe-labelled cysteine peptide fold change” value is reported as -0.425.
“WDR19_Q8NEZ3_813_EHDEACLAGVAQMSIR (UniProt Q8NEZ3)” was tested, and the “probe-labelled cysteine peptide fold change” value was 0.249.
“WDR92_Q96MX6_24_GFNYTVFDCK (UniProt Q96MX6)” was tested, and the “probe-labelled cysteine peptide fold change” value was 0.165.
In the case of “XAF1_Q6GPH4_62_LEHQQVGCTMCQQSMQK (UniProt Q6GPH4)”, the “probe-labelled cysteine peptide fold change” value is reported as -0.43.
In the case of “WDR7_Q9Y4E6_109_LACTHTGIQFYQFSVGNQR (UniProt Q9Y4E6)”, the “probe-labelled cysteine peptide fold change” value is reported as -0.152.
With “WDR75_Q8IWA0_444+451_INMPHEDCITALCFCNAEK (UniProt Q8IWA0)” the “probe-labelled cysteine peptide fold change” value was -0.701.
With “WDR59_Q6PJI9_654_VIIQDIACLLPVHK (UniProt Q6PJI9)” the “probe-labelled cysteine peptide fold change” value was -0.0774.
In the case of XPC_Q01831_514_MCSDGEK (UniProt Q01831), the “probe-labelled cysteine peptide fold change” value is reported as -0.508.
For “WDFY4_Q6ZS81_1763_HHQEEVLQAGLCTEGALLLLEMLK (UniProt Q6ZS81)”, the “probe-labelled cysteine peptide fold change” value was 0.477.
With “WRAP53_Q9BUR4_512_HVHLECR (UniProt Q9BUR4)” the “probe-labelled cysteine peptide fold change” value was 0.0138.
In the case of “WDFY4_Q6ZS81_835_MDEGDAAIMHPGVVCIMVR (UniProt Q6ZS81)”, the “probe-labelled cysteine peptide fold change” value is reported as -0.131.
“WDR7_Q9Y4E6-2_959_QGWSQLAAMHCVMLPDLLGLDK (UniProt Q9Y4E6)” was tested, and the “probe-labelled cysteine peptide fold change” value was 0.163.
For “WDR43_Q15061_140_VNCIQWHQDSGCLYSCSDDK (UniProt Q15061)”, the “probe-labelled cysteine peptide fold change” value was 0.2.
“WDFY4_Q6ZS81_545_VSTPGVQDPERELTCVMLR (UniProt Q6ZS81)” was tested, and the “probe-labelled cysteine peptide fold change” value was -0.218.
With “WDR59_Q6PJI9_677_SLGELYILNVNDIQETCQK (UniProt Q6PJI9)” the “probe-labelled cysteine peptide fold change” value was 0.22.
“WDR53_Q7Z5U6_99_DSLDHFHVNEEEINCLSLNQTENLLASADDSGAIK (UniProt Q7Z5U6)” was tested, and the “probe-labelled cysteine peptide fold change” value was -0.182.
“WDR82_Q6UXN9_153_PVCSFDPEGLIFAAGVNSEMVK (UniProt Q6UXN9)” was tested, and the “probe-labelled cysteine peptide fold change” value was 0.23.
In the case of “WDR75_Q8IWA0_546_HLCFGR (UniProt Q8IWA0)”, the “probe-labelled cysteine peptide fold change” value is reported as 0.149.
For “WDR92_Q96MX6_213_NGVCSLEFDRK (UniProt Q96MX6)”, the “probe-labelled cysteine peptide fold change” value was 0.0597.
“WDR11_Q9BZH6_1000_KCTDQLLLLGQTDR (UniProt Q9BZH6)” was tested, and the “probe-labelled cysteine peptide fold change” value was -0.0351.
“WDHD1_O75717_277+285_GYAICGLAWHPTCGR (UniProt O75717)” was tested, and the “probe-labelled cysteine peptide fold change” value was 0.203.
For “WDR5_P61964_205_IWDTASGQCLK (UniProt P61964)”, the “probe-labelled cysteine peptide fold change” value was 0.0228.
“WDR3_Q9UNX4_296+307_ILACHGTDSVLELFCILSK (UniProt Q9UNX4)” was tested, and the “probe-labelled cysteine peptide fold change” value was 0.0981.
For “WDR11_Q9BZH6_473_MCPPLTTK (UniProt Q9BZH6)”, the “probe-labelled cysteine peptide fold change” value was -0.0661.
For “WDFY1_Q8IWB7_344_VCDSCYDSIKDEDR (UniProt Q8IWB7)”, the “probe-labelled cysteine peptide fold change” value was -0.255.
With “WDR41_Q9HAD4_340_QLISCSEDGSVR (UniProt Q9HAD4)” the “probe-labelled cysteine peptide fold change” value was -0.00141.
“WWP2_O00308_506_FLCHSNALPSHVK (UniProt O00308)” was tested, and the “probe-labelled cysteine peptide fold change” value was 0.141.
“WNK1_Q9H4A3_1135_VVECQLETHNR (UniProt Q9H4A3)” was tested, and the “probe-labelled cysteine peptide fold change” value was 0.0576.
“WDR1_O75083_438_KCFSIDNPGYEPEVVAVHPGGDTVAIGGVDGNVR (UniProt O75083)” was tested, and the “probe-labelled cysteine peptide fold change” value was -0.935.
In the case of “WDR76_Q9H967_66_VYLAPFSLSNYQLDQLMCPK (UniProt Q9H967)”, the “probe-labelled cysteine peptide fold change” value is reported as 0.35.
